“And” between values parts separate entries of the source, which are not always exact repeats. Equal values may be shown once. Not every detail of the peptide structures is certain; ends, links or a residue may be inferred.
Assays:
penile erection = conditions: injection, man; cited from earlier work
[1] = tested on: sexual behaviour of male rats; experiment: Sexual behaviour of castrated male rats, topical application of several materials (Table III); assay type: in vivo, rat; conditions: individual rats, castrated 14 days earlier, testosterone 4 μg/100 g BW daily
From the text: (§1) The animal model -- All tested rats (Wistar derived from the departmental colony, Hormone Research Department, at the Weizmann Institute of Science), are sexually experienced male rats around 3 months of age (body weight ~250 g). At this age, the rats are castrated by removal of the testes and injected daily with testosterone for at least 14 consecutive days.
(§2) All rats (males and females) that take part in the experiment are kept in a 12-hour light 12-hour dark cycle. Prior to testing, each male is put in a separate cage for at least 1 hour. A sexually receptive female is introduced to each male. Females were tested for their receptivity by vaginal smearings. The latencies of mounts and intromissions are recorded.
6 rats, 120 days old, sexually experienced, were tested. The rats were castrated 14 days earlier and were injected with 4 μg/100 g BW of testosterone daily. […] All 6 materials were tested by topical application.

[2] = tested on: sexual behaviour of male rats; experiment: Sexual behaviour of castrated, testosterone-treated male rats after intravenous injection (Table I); assay type: in vivo, rat; parameters: key to Ejaculations (E): E = Ejaculations; conditions: individual castrated rats, injection 10 μg/animal
From the text: as §1
as §2, with “recorded. […] Using castrated animals we achieved decreased sexual activity which is expressed by longer intervals between intromissions and less intromissions during the 15 min observation periods.” for “recorded.”
Initially, we tested a few VIP analogs by injection (intravenously 5-10 μg/animal). As a control we injected saline at identical volumes (5-10 μl).
Rats were castrated and injected daily for 15 consecutive days with testosterone at 4 μg/100 g body weight (BW). Tests were performed with stearyl-VIP or VIP at 10 μg/animal.

[3] = testosterone 4 μg/100 g BW daily 15 days

Structure (SMILES): CC[C@H](C)[C@H](NC(=O)[C@H](CO)NC(=O)[C@H](CC(N)=O)NC(=O)[C@H](CC(C)C)NC(=O)[C@H](Cc1ccc(O)cc1)NC(=O)[C@H](CCCCN)NC(=O)[C@H](CCCCN)NC(=O)[C@@H](NC(=O)[C@H](C)NC(=O)[C@H](CCSC)NC(=O)[C@H](CCC(N)=O)NC(=O)[C@H](CCCCN)NC(=O)[C@H](CCCNC(=N)N)NC(=O)[C@H](CC(C)C)NC(=O)[C@H](CCCNC(=N)N)NC(=O)[C@@H](NC(=O)[C@H](Cc1ccc(O)cc1)NC(=O)[C@H](CC(N)=O)NC(=O)[C@H](CC(=O)O)NC(=O)[C@@H](NC(=O)[C@H](Cc1ccccc1)NC(=O)[C@@H](NC(=O)[C@H](C)NC(=O)[C@H](CC(=O)O)NC(=O)[C@H](CO)NC(=O)[C@@H](N)Cc1c[nH]cn1)C(C)C)[C@@H](C)O)[C@@H](C)O)C(C)C)C(=O)N[C@@H](CC(C)C)C(=O)N[C@@H](CC(N)=O)C(N)=O [VIP, Vasoactive Intestinal Peptide, reference compound]
- Erection (penile erection): induces erection
- No. Ob. [1]: 21 and 15 and 10
- Int. Latency ([1]; in s): 22 ± 6 and 20 ± 1 and 59 ± 3
- Intromission latency [2, 3]: 30 ± 5 s and 27 ± 7 s and 22 ± 2 s and 56 ± 10 s and 26 ± 6 s
- Obs. = Number of intromissons per 15 minute test period [2, 3]: 26 and 15 and 19 and 10 and 13
- Ejaculations (E) [2]: E

Source: patent US5147855A, “Conjugates of VIP and active fragments thereof with hydrophobic moieties and topical compositions for male impotence” (Yeda Research and Development Co. Ltd., priority 1988, dated 1992)
